Results taken from PubChem BioAssay AID2685 (National Center for Advancing Translational Sciences (NCATS), 2010).
Where “and” joins values, the source holds several entries; their conditions need not be identical. Equal entries are not always repeated. This is one part of the list. Shown are side measurements of this screen, not its main read-out; they come without a call. Most of these compounds were active or inconclusive in the main read-out, so they are no random draw. Words in brackets tell the shape of the fitted curve; partial curves, single points and poor fits give uncertain potencies.

Assay: qHTS Assay for Lipid Storage Modulators in Drosophila S3 Cells;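 for cell number change: cells counted by Cell Tracker Red CMTPX staining in the red channel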
Conditions: BODIPY lipid droplet fluorescence, 18-24 h; for cell number change: measured here: cell count max response, cells fed with added oleic acid
Procedure, shortened: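 Laser-scanning cytometry quantifies lipid droplet accumulation (500–530 nm total intensity; droplet/cell object ratio) in oleic acid-fed (400 uM added) Drosophila S3 cells treated with a concentration series. 20 uM Triacsin C defined 100% inhibition.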

[1] = measured here: cell number channel AC50, cells fed with added oleic acid
[2] = measured here: lipid fluorescence (Fed channel) AC50, cells fed with added oleic acid

SMILES	cell number change	AC50 [1]	AC50 [2]
NC(N)=N/N=C/c1ccc(OCc2ccc(Cl)cc2Cl)cc1	-76.6%	18.4 µM [falling, partial curve]	0.0058 µM [falling, full curve, poor fit]
COc1ccc(CC2CCOC2=O)cc1 (configuration not stated)	1.33%	–	–
Cn1cc(C(=O)c2ccc(Cl)cc2Cl)cc1C(=O)N/N=C(\N)COc1ccc(Cl)cc1Cl	31.5%	1.64 µM [rising, full curve, poor fit]	6.51 µM [rising, single point]
COc1ccc(C2=CC(=O)CC(c3ccc(OC)cc3)C2)cc1 (configuration not stated)	106%	–	–
Cc1[nH]c2ccc(C(=O)NCCCN3CCOCC3)cc2c1C	-2.09%	–	–
COc1cccc(OC)c1C(=O)Nc1ccc(N2CCCC2)cc1	1.47%	0.58 µM [rising, full curve, poor fit]	–
O=C(CN1C(=O)c2cccc3cccc1c23)N1CCN(c2ccccc2)CC1	–	–	0.58 µM [falling, single point]
Cn1c(=O)c2cn3c(c2n(C)c1=O)C(c1ccccc1)CC(c1ccccc1)=N3 (configuration not stated)	7.4%	–	0.231 µM [rising, full curve, poor fit]
COc1ccc(OC)c(NC(=O)c2ccc(NS(C)(=O)=O)cc2)c1	–	–	7.31 µM [rising, partial curve]
Cc1ccc(C2=NC3(CCCCC3)NC2=S)cc1	-57.2%	0.58 µM [falling, full curve]	0.58 µM [falling, full curve]
Cc1cc(C)n(-c2ccc(F)cc2)c(=O)c1C#N	-10.2%	–	0.92 µM [falling, full curve, poor fit]
CCOCCN1CCN(C(=O)CN2CCCC2=O)CC1	-6.35%	–	1.16 µM [falling, partial curve]
O=C(C[n+]1ccn(-c2ccccc2)c1)c1ccc([N+](=O)[O-])cc1	-37.8%	29.1 µM [falling, single point]	6.51 µM [falling, single point]
Cc1ccc2nc(SCc3nnc(-c4ccccc4[N+](=O)[O-])o3)c(C#N)cc2c1	-21.5%	3.26 µM [falling, single point]	–
CCOC(=O)C(C)Oc1cccc2c(=O)n(CC(=O)NCc3ccc(F)cc3)ccc12 (configuration not stated)	6.28%	–	1.03 µM [falling, full curve]
O=C1CCN(CCc2ccccc2)CCN1[C@H](CO)Cc1ccccc1	30.1%	–	–
O=C1NC(=O)C2(COC(c3ccncc3)OC2)S1 (configuration not stated)	-52.7%	0.00461 µM [falling, full curve, poor fit]	–
CCC(C)Sc1nnc(CNC(=O)C23CC4CC(CC(C4)C2)C3)n1C1CCCCC1 (configuration not stated)	-49.7%	16.4 µM [falling, single point]	18.4 µM [falling, single point]
CC(C)C(NC(=O)c1ccccc1)C(=O)NCC(c1ccccc1)N(C)C (configuration not stated)	-65.8%	14.6 µM [falling, partial curve]	23.1 µM [falling, partial curve]

Single records, as listed above:
Cc1cc(C)n(-c2ccc(F)cc2)c(=O)c1C#N in the list: cell number change: -10.2%; AC50 [2]: 0.92 µM [falling, full curve, poor fit]
O=C(CN1C(=O)c2cccc3cccc1c23)N1CCN(c2ccccc2)CC1 in the list: AC50 [2]: 0.58 µM [falling, single point]
O=C1NC(=O)C2(COC(c3ccncc3)OC2)S1 (configuration not stated) in the list: cell number change: -52.7%; AC50 [1]: 0.00461 µM [falling, full curve, poor fit]

(continued)

SMILES	cell number change	AC50 [1]	AC50 [2]
C/C(=N\NC(=O)C(c1ccccc1)c1ccccc1)c1ccccn1	-2.76%	6.51 µM [falling, single point]	2.06 µM [falling, partial curve]
S=C(NCc1ccco1)Nc1ccc(Oc2ccccc2)cc1	–	–	4.11 µM [rising, single point]
Cc1cc2cc(CNS(=O)(=O)c3ccccc3)ccc2n1C	0.395%	–	3.66 µM [rising, single point]
COc1ccccc1C(=O)N(C)c1nnc(-c2ccccc2)s1	2.89%	–	18.4 µM [rising, partial curve]
CCOc1ccc(CN(C(=O)c2ccco2)C2CCS(=O)(=O)C2)cc1 (configuration not stated)	-48.9%	29.1 µM [falling, single point]	16.4 µM [falling, single point]
COc1cccc(/C=C2/SC(=S)N(CC(=O)NNC(=O)c3ccccc3OC)C2=O)c1	3.04%	–	29.1 µM [rising, single point]
CCOc1ccc(-c2cc(N)n(S(=O)(=O)c3cccc4nsnc34)n2)cc1	11.5%	–	29.1 µM [rising, single point]
COc1ccccc1C(=O)CSc1n[nH]c(N)n1	-15.9%	–	2.31 µM [falling, full curve]
COc1ccc(-c2cc(C)no2)cc1S(=O)(=O)N1CCCN(Cc2ccccc2Cl)C1	-5.07%	–	16.4 µM [falling, single point]
COc1ccc(NC(=O)CSc2nc3c(c(=O)n2-c2ccc(C)cc2)SCC3)c(OC)c1	18%	–	9.2 µM [rising, partial curve, poor fit]
COc1ccc(/C=N/NC(=O)c2cccc([N+](=O)[O-])c2)c2ccccc12	-108%	–	–
COCCn1c(SCc2nc3ccccc3s2)nc2ccccc21	29.7%	0.103 µM [rising, full curve]	0.58 µM [rising, full curve]
COc1ccc(N2CCN(C(=O)CCCCCn3c(=O)[nH]c4ccsc4c3=O)CC2)cc1	24.4%	0.0651 µM [rising, partial curve, poor fit]	–
CC1CCN(c2nc3ccc(C(=O)N4CCN(Cc5ccccc5)CC4)cc3s2)CC1	21%	2.59 µM [rising, partial curve]	32.6 µM [rising, single point]
Cc1onc(-c2ccccc2)c1C(=O)OCC(=O)Nc1cccc(Cl)c1	-41%	18.4 µM [falling, partial curve, poor fit]	25.9 µM [falling, partial curve, poor fit]
CC1CCCCC1NC(=O)c1ccncc1 (configuration not stated)	24.1%	–	0.355 µM [rising, full curve]
CCN(CC(=O)Nc1ccc2c(c1)OCCO2)S(=O)(=O)c1cccs1	48.4%	13 µM [rising, partial curve]	6.51 µM [rising, single point]
COc1ccc(NS(=O)(=O)c2cc(C(=O)N3CCN(C/C=C/c4ccccc4)CC3)ccc2C)cc1	62.3%	–	–
CCOc1cc(/C=N/n2c(COc3ccccc3)n[nH]c2=S)ccc1O	172%	–	–

SMILES	cell number change	AC50 [1]	AC50 [2]
COC(=O)c1cc2c(=O)n3ccccc3nc2n(C)c1=N	80.3%	29.1 µM [rising, single point]	–
COc1ccc(N2C(N)=C(C#N)C(c3ccsc3)C3=C2CCCC3=O)c(OC)c1 (configuration not stated)	13.2%	–	1.03 µM [rising, partial curve, poor fit]
CN(C)CCNc1nc2c(c(=O)[nH]c(=O)n2C)n1CCCc1ccccc1	-37.7%	0.366 µM [falling, full curve]	0.58 µM [falling, full curve]
CCOc1cc(/C=C(\C(=O)O)c2ccc(S(=O)(=O)N3CCCC3)s2)ccc1OC	38.1%	14.6 µM [rising, partial curve, poor fit]	14.6 µM [rising, partial curve]
Cc1cc(=O)n2nc(N3CCC(C(=O)NC4CCCc5ccccc54)CC3)sc2n1 (configuration not stated)	10.7%	–	25.9 µM [falling, single point]
O=C(CSc1ccc2c(c1)OCCO2)Nc1cccc(S(=O)(=O)N2CCCCC2)c1	61.2%	29.1 µM [rising, single point]	18.4 µM [rising, partial curve]
Brc1ccc(-c2nnc3c4ccccc4nc(N4CCOCC4)n23)cc1	-1.07%	–	0.411 µM [rising, full curve]
Cn1cnnc1SCC(=O)Nc1ccc(S(=O)(=O)N2CCOCC2)cc1	10.9%	–	0.58 µM [rising, full curve, poor fit]
COc1ccc(NC(=O)CSCC(=O)Nc2cc(Cl)ccc2N2CCCC2)cc1	-25%	0.146 µM [falling, full curve, poor fit]	–
CC1(C)CC(=O)C=C(Nc2ccccc2C#N)C1	18.9%	–	5.8 µM [rising, single point]
Cc1onc(-c2ccccc2)c1C(=O)N/N=C/c1cc(Br)c(Br)o1	33.1%	3.66 µM [rising, full curve, poor fit]	6.51 µM [rising, single point]
O=C(NCc1ccccc1)c1ccc(CN(c2ccccn2)S(=O)(=O)c2ccccc2)cc1	–	–	32.6 µM [falling, single point]
O=C(c1ccco1)N1N=C(c2ccco2)CC1c1ccc(Cl)cc1Cl (configuration not stated)	-48.9%	16.4 µM [falling, partial curve]	4.11 µM [falling, full curve, poor fit]
Cc1onc(-c2ccc(Cl)cc2Cl)c1-c1csc(N/N=C/c2ccccc2)n1	6.64%	–	1.64 µM [rising, partial curve]
C/C(=N/NS(=O)(=O)c1cccc([N+](=O)[O-])c1)c1ccncc1	–	–	0.517 µM [falling, single point]
Cc1ccnc(NS(=O)(=O)c2ccc(NC(=O)c3ccc(S(=O)(=O)N4CCOCC4)cc3)cc2)n1	-17.9%	–	1.46 µM [falling, full curve, poor fit]
CCN1C(=NCCOC)N[C@@H](CCc2ccccc2)[C@H](C(=O)OC)[C@H]1C	-2.69% and 11.6%	–	29.1 µM [rising, single point]
COCCNC(=O)/C(C#N)=C/c1ccccc1Br	-46.6%	–	15.8 µM [falling, single point]
